The assay can be described thus: qHTS Assay to Find Inhibitors of Chronic Active B-Cell Receptor Signaling. Conditions: ABC-DLBCL IkBa-CBG/CBR reporter, luminescence ratio (green luciferase fused to IkBa over red control in TMD8 lymphoma cells), 4 h. The method, boiled down: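 Concentration-response series (up to 46 uM) were applied to TMD8 dual-reporter cells for 4 h at 37C with doxycycline. Green/red ratio, after filter-overlap correction, defined %Activity; red signal alone was normalised to basal cells and zero luminescence.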
(In qHTS, concentration-response curves come from the screen itself.)

Setting [1] is: measured here: CBR red luminescence, cell number.
Setting [2] is: measured here: IkBa-CBG green luminescence.

This is one part of the list. These are further read-outs of the screen, such as a control signal, another cell line or another target. No call is given for them. Compounds called inactive in the main read-out are mostly missing here. Potencies come from curve fits of mixed quality, noted in brackets.

The AC50 is the concentration at which the activity in the assay is half-maximal. For `Cc1ccc(F)cc1N=Cc1c(O)c2ccccc2oc1=O`, the AC50 under setting [1] was 3.98 µM [falling, partial curve].
On the same count and under the same terms, next, `O=C(CNC(=O)[C@@H]1Cc2ccccc2CN1)Nc1ccc2c(c1)OCCO2`: 2.82 µM [rising, single point]; `COCCn1c(N)c(C(=O)NCC2CCCO2)c2nc3ccccc3nc21` (stereo not drawn): 7.94 µM [falling, partial curve].
As for `O=C(NNc1ncnc2c1cnn2-c1ccccc1)c1ccco1`, the AC50 under setting [1] is 12.6 µM [falling, partial curve] and the concentration at half-maximal activity (AC50) under setting [2] is 6.31 µM [rising, full curve, poor fit].
For `Cc1nc(C)c(C(=O)NNC(=O)c2ccc(Br)cc2)s1`, the AC50 under setting [1] was 29.1 µM [falling, single point].
Still for that read-out and setting: under `COc1ccccc1NC(=O)CN1CCOCC1` stands 5.62 µM [rising, partial curve, poor fit]; under `COc1ccc(CNC(=O)C2CCN(S(=O)(=O)c3ccc4c(c3)NC(=O)CO4)CC2)cc1`, 22.4 µM [falling, single point]; under `CCNCCNC(=O)c1c(O)c2cccc3c2n(c1=O)CCC3`, 11.2 µM [falling, single point].
For the compound `CC(Sc1nc(O)c(-c2ccccc2)c(=O)[nH]1)C(=O)Nc1ccc(Cl)cc1` (stereo not drawn), under setting [1], the AC50 was 7.08 µM [falling, full curve, poor fit].
On to `c1ccc(-c2c(-c3ccccc3)n(Cc3ccco3)c3ncnc(NCCCn4ccnc4)c23)cc1`, for which, under setting [1], the AC50 was 18.4 µM [falling, single point].
Still for that read-out and setting: under `CCOC(=O)N1CCC(NS(=O)(=O)c2cc3c(cc2Cl)NC(=O)CO3)CC1` stands 2.91 µM [rising, partial curve].
Still for that read-out and setting: next, `O=C(NC1CCCCCC1)c1cccc(N2CCCC2=O)c1`: 2.31 µM [falling, partial curve, poor fit].
On the same count and under the same terms, next, `COc1ccccc1CNc1ncccc1[N+](=O)[O-]`: 0.112 µM [rising, full curve, poor fit]; `COc1ccc(NC(C)=O)cc1S(=O)(=O)Nc1ccc(OCc2ccccc2)cc1`: 35.5 µM [falling, single point].
Regarding `O=C(Nc1cccc(Cl)c1)C1COc2ccccc2O1` (stereo not drawn), under setting [1], the half-maximal activity concentration (AC50) is 0.891 µM [rising, partial curve, poor fit].
On to `COCCCNC(=O)/C(C#N)=C/c1cccc(NC(=O)c2ccccc2Cl)c1`, for which the AC50 by setting is: under setting [1], 8.2 µM [falling, partial curve, poor fit]; under setting [2], 29.1 µM [falling, single point].
In the case of `COc1ccc(CNC(=O)C(c2ccncc2)N(C(=O)Cc2cccs2)c2ccc(C)cc2)cc1` (stereo not drawn), the AC50 under setting [1] is 25.9 µM [falling, partial curve, poor fit].
Regarding `COc1ccc(NC(=O)CCOc2ccc(C)cc2)cc1S(=O)(=O)N1CCCCC1`, the AC50 under setting [1] is 6.51 µM [rising, single point].
Same read-out and setting: under `Cc1cc(C)n(-c2ccc(Cl)c(C(=O)OCC(N)=O)n2)n1` stands 0.231 µM [falling, full curve, poor fit].
Still for that read-out and setting: under `CCCOc1ccc(-c2nc(-c3ccc(N)cc3)cs2)cc1` stands 14.1 µM [rising, partial curve]; under `CC1=C(C(=O)Nc2ccccc2)C(c2ccc(C(=O)O)cc2)n2nc(SCC(=O)c3ccc(C)cc3)nc2N1` (stereo not drawn), 35.5 µM [falling, single point].
The same measure, in the same setting: next, `O=c1c2ccccc2ncn1CCCCOc1ccccc1F`: 0.0891 µM [rising, full curve, poor fit].
Consider `Cc1ccc2nc(SCC(=O)Nc3cc(C(F)(F)F)ccc3N3CCOCC3)[nH]c2c1`, for which the concentration at half-maximal activity (AC50) is, setting by setting: under setting [1], 29.1 µM [rising, single point]; under setting [2], 11.6 µM [falling, partial curve].
`C=CCSc1nc2sc(C)c(C)c2c(=O)n1N`: the AC50 under setting [1] is 14.6 µM [rising, partial curve].
Consider `CS(=O)(=O)c1ccccc1COC(=O)Nc1ccc(Cl)cc1`, for which the AC50 under setting [1] was 11.2 µM [falling, partial curve, poor fit].
For the compound `COc1ccc(C(OCC(O)CN(C)C2CCCCC2)c2ccc(OC)cc2)cc1` (stereo not drawn), under setting [1], the AC50 was 15.8 µM [falling, single point].
The same measure, in the same setting: under `NCCCCCc1nnc(SC/C=C/c2ccccc2)o1` stands 0.651 µM [falling, partial curve, poor fit].
As for `CC1=CC(C)(C)N(S(=O)(=O)c2ccc(F)cc2)c2ccc(C)cc21`, the concentration at half-maximal activity (AC50) under setting [1] was 20.6 µM [rising, single point] and the half-maximal activity concentration (AC50) under setting [2] is 25.9 µM [falling, single point].
As to `Cc1ccc(-n2ncc3c(NNC(=O)c4ccccc4C)ncnc32)cc1`, under setting [1], the AC50 was 8.91 µM [falling, partial curve].
Same read-out and setting: next, `O=C(N/N=C/c1ccccc1O)c1ccc2c(c1)OCO2`: 10 µM [falling, partial curve].
For the compound `Cc1ccc(NC(=O)c2cccs2)cc1S(=O)(=O)Nc1cccc(Cl)c1`, under setting [1], the concentration at half-maximal activity (AC50) was 25.9 µM [falling, single point].
As to `O=C(CCl)N=c1sccn1Cc1ccc(Cl)cc1Cl`, the AC50 under setting [1] was 7.08 µM [falling, partial curve].
On the same count and under the same terms, under `O=C(NCc1nc(-c2ccccc2)no1)c1cccs1` stands 1.41 µM [rising, full curve, poor fit].
Same read-out and setting: next, `O=C(NCc1cccc(F)c1)c1cccc2c1C(=O)c1ccc(Cl)cc1S2(=O)=O`: 0.58 µM [rising, full curve, poor fit].
The same measure, in the same setting: under `N#CC1(C#N)C(C(N)=O)C1c1ccccc1` (stereo not drawn) stands 5.8 µM [rising, partial curve, poor fit]; under `C=C(C)Cn1c(N(CCO)Cc2ccccc2)nc2c1c(=O)[nH]c(=O)n2C`, 18.4 µM [rising, partial curve, poor fit].
Turning to `ClCc1nnc(-c2ccccc2)o1`, the AC50 under setting [1] was 23.1 µM [falling, partial curve].
Still for that read-out and setting: next, `Cn1cc(CCC(=O)N2CCCC(C(=O)c3ccc(C(C)(C)C)cc3)C2)cn1` (stereo not drawn): 35.5 µM [rising, partial curve, poor fit].
The same measure, in the same setting: next, `CCc1nnc(N2C(=N)SCC2=O)s1`: 1 µM [rising, full curve, poor fit].
The same measure, in the same setting: under `Cc1nc2c(C#N)c(-c3ccc(Cl)cc3)ccn2n1` stands 20 µM [rising, partial curve, poor fit]; under `O=S(=O)(c1cccc2c(S(=O)(=O)N3CCCC3)cccc12)N1CCCC1`, 3.66 µM [falling, partial curve, poor fit].
As to `CCC1=NN2C(=N)/C(=C\c3cccn3-c3ccc(C)c(C)c3)C(=O)N=C2S1`, under setting [1], the AC50 was 15.8 µM [rising, partial curve, poor fit].
Consider `CC1CCc2c(sc(NC(=O)c3cccn3C)c2C(N)=O)C1` (stereo not drawn), for which the AC50 under setting [1] is 23.1 µM [falling, single point].
The same measure, in the same setting: next, `CN(C)S(=O)(=O)c1ccc(NC(=S)NC(=O)Cc2ccccc2)cc1`: 3.16 µM [falling, partial curve, poor fit]; `CN(Cc1ccccc1)C(=O)COC(=O)c1cc(=O)[nH]c2ccccc12`: 23.1 µM [rising, partial curve, poor fit].
The same measure, in the same setting: under `Cc1occc1C(=O)O/N=C(\N)c1ccc(Cl)cc1` stands 7.94 µM [falling, partial curve, poor fit]; under `Nc1cc(=O)[nH]c(SCC(=O)N2CCc3ccccc3C2)n1`, 35.5 µM [rising, single point]; under `Nc1c(-c2ccc(Cl)cc2)nnn1-c1ccccc1`, 18.4 µM [falling, partial curve, poor fit].
Still for that read-out and setting: next, `CC(C)(C)c1ccc(/C=N/NC(=O)C2CCCC2)cc1`: 15.8 µM [rising, partial curve, poor fit]; `O=C(CS(=O)(=O)c1ccccc1)Nc1nnc(C(F)(F)F)s1`: 12.6 µM [falling, single point].
For the compound `Cc1nc2ccc(NC(=O)c3ccccc3)cc2s1`, under setting [1], the concentration at half-maximal activity (AC50) was 11.2 µM [falling, partial curve, poor fit].
On the same count and under the same terms, next, `CCCn1c(COc2ccccc2)nc2ccccc21`: 17.8 µM [falling, single point]; `CCc1cc2c(=O)[nH]c(-c3ccncc3)nc2s1`: 13 µM [falling, partial curve, poor fit].
Same read-out and setting: under `Cc1c(C(=O)NCCSCc2cccc(C(F)(F)F)c2)cnn1-c1ccc(Cl)cc1` stands 35.5 µM [falling, single point].
Still for that read-out and setting: next, `CCCN(CCC)Cc1c(C(=O)N/N=C/c2c[nH]c3ccccc23)nnn1-c1nonc1N`: 35.5 µM [falling, single point].
For the compound `O=C(Nc1ccc(Br)cc1)c1cc2ccccn2n1`, the AC50 under setting [1] is 14.1 µM [falling, partial curve].
Same read-out and setting: under `O=C(CSc1ncnc2scc(-c3ccccc3)c12)NCc1ccc2c(c1)OCO2` stands 29.1 µM [falling, partial curve, poor fit].
Take `O=C(Nc1nnc(C2=COCCO2)o1)c1ccc(F)cc1`: the AC50 is, setting by setting: under setting [1], 28.2 µM [falling, partial curve]; under setting [2], 22.4 µM [falling, single point].
For `COc1ccccc1C(=O)NCCc1nc2ccccc2[nH]1`, the concentration at half-maximal activity (AC50) under setting [1] was 31.6 µM [falling, single point].
Turning to `Cc1ccc(-c2[nH]c(=O)n3ccncc23)s1`, under setting [1], the concentration at half-maximal activity (AC50) was 8.91 µM [rising, partial curve, poor fit].
The same measure, in the same setting: under `COc1ccc(-c2cn[nH]c2-c2ccc(OCc3ccc(F)cc3)cc2O)cc1OC` stands 20 µM [falling, single point].
Still for that read-out and setting: next, `CC(C)(C)c1ccc(CN2C3=NCCCN3c3ccccc32)cc1`: 25.9 µM [falling, single point]; `COc1ccc(NC(=O)Cn2c(=O)n(-c3ccc(Cl)cc3)c(=O)c3c(C)c(C(=O)N(C)C)sc32)cc1Cl`: 3.98 µM [rising, single point].

Source of the values: PubChem BioAssay AID493014 (National Center for Advancing Translational Sciences (NCATS), 2011).
